Data from PMC12339391.
These are yes or no findings as the source states them, for the method shown. Binding seen in cells or lysates may run through a third protein. Here binding means that the protein was enriched with, or labelled near, the bait; the list need not be complete. Sequences can lack the tags named with a protein.

By UniProt entry, the sequences of proteins in these tests, tags left out. Where a name states a change or a piece, a line headed by the entry shows the natural chain unless it says otherwise.
UniProt P27796: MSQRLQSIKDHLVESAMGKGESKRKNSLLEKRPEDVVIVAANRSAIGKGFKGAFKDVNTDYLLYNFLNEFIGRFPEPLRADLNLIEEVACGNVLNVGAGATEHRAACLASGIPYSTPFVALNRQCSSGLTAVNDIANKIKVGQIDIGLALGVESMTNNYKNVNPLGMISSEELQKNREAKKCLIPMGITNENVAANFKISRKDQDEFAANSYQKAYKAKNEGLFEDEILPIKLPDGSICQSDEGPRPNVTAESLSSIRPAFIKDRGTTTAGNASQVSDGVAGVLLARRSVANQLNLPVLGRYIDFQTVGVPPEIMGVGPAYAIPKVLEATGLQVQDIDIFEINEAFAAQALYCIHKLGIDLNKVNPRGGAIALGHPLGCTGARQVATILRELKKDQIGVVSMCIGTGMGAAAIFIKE

Molecular target: T1, Pex18-TPA (S. cerevisiae Pex18 fused C terminally with the TEV protease cleavage site and protein A tag) (S. cerevisiae) (UniProt P38855)
T1 sequence: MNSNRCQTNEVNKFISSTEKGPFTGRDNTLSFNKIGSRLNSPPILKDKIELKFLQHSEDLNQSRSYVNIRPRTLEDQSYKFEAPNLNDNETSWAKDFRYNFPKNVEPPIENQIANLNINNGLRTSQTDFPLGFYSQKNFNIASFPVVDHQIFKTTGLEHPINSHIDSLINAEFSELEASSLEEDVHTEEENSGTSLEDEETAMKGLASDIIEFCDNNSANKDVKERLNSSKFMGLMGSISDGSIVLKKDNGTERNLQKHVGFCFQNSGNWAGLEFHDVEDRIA
Experiment: affinity purification with mass spectrometry; Pex18-TPA (protein A tag) as bait; native complexes from soluble fractions of yeast grown in oleic acid medium, eluted with TEV protease; control: untagged wild type; label-free quantification, n = 3

binding: binds
Substance: Pot1 (S. cerevisiae ACAA1, PTS2-containing protein) (from UniProt P27796)
